Assay results from US20160201132A1, “GENE EXPRESSION BIOMARKERS OF LAQUINIMOD RESPONSIVENESS” (Teva Pharmaceutical Industries Ltd., priority 2013, published 2016).
Further values from the same series stand in other lists.

System: PBMC of RRMS patients
Assay: Gene expression microarray analysis (HG-U133A-2) of PBMC from RRMS patients treated with LAQ, ancillary study to ALLEGRO
Type: in vivo, human
From the text: The goal of this ancillary study was to characterize gene expression changes and corresponding biological mechanisms induced in PBMC of RRMS patients by LAQ treatment. According to ALLEGRO clinical trial inclusion criteria, 25 patients were randomly assigned to receive LAQ (n=13, age 38.8±2.3 years, female/male ratio: 8/5) or placebo (n=12, age 37.2±3.4 years, female/male ratio: 8/4).
Peripheral blood samples were obtained from RRMS patients at baseline before start of LAQ treatment or placebo, after 0, 1, 6 and 24 month of treatment (visit 0, 1, 6 and 7 according to ALLEGRO clinical trial protocol correspondently) for gene microarray analysis.
Briefly, 1) Peripheral blood mononuclear cells (PBMC) were obtained from RRMS patients that participated in ALLEGRO and were treated daily with 0.6 mg LAQ or placebo. PBMC were subjected for gene expression analysis (HU-133A-2-Affymatrix arrays) at baseline and at 1 and 6 months of LAQ treatment; 2) Data was analyzed by Partek Genomics Solution software. Most informative genes (MIGs) were defined as those that differentiated between groups with p<0.01. Gene functional annotation, enrichment and pathway analysis were performed by Ingenuity software. For each time point, genes that changed in placebo group were excluded from further analysis; and 3) Verification of LAQ related mechanism was performed by Western blot.
PBMC were extracted from 15 ml peripheral blood, separated by Ficoll-Hypaque gradient. Total RNA was extracted using both Trizol (Invitrogen, USA) and Phase-Lock-Gel columns (Eppendorf, Germany) including a DNase digestion step. RNA integrity was assessed by RNA Experion automated electrophoresis system (Bio-Rad Laboratories, Hercules, Calif.).
Probe synthesis using 3 μg total RNA, hybridization, detection, and scanning was performed according to the standard Affymetrix, Inc. USA protocols; cDNA was synthesized using the Two-Cycle cDNA Synthesis Kit (Affymetrix, Inc., USA), and in-vitro transcription performed with the GeneChip IVT Labeling Kit (Affymetrix, Inc., USA). The biotin-labeled IVT-RNA was hybridized to HG-U133A-2 arrays containing 18,400 gene transcripts, each corresponding to 14,500 well-annotated human genes, washed in a GeneChip Fluidics Station 450 (Hewlett Packard, USA, GeneArray-™ scanner G2500A) and scanned according to the manufacturer's protocol (Affymetrix, Inc., USA).
Data analysis was performed on Partek Genomics Solution software (www.partek.com; Partek Incorporated, St. Louis, Mo.). Expression values were computed from raw CEL files by applying the Robust Multi-Chip Average (RMA) background correction algorithm. RMA correction included: 1) values background correction; 2) quintile normalization; 3) log 2 transformation; and 4) median polish summarization. The ANOVA, Repeated Measures and correlation analysis implicated in Partek software ware applied to evaluate LAQ effects. Most informative genes MIGs were defined as those that differentiated between experimental groups with p<0.01. All p-values were calculated for False Discovery Rate (FDR) multiple test correction at p=0.05.
Additionally, significance of individual genes was tested by parametric T-test and non parametric Mann-Whitney test using Bootstrapping approach based on repeated permutations of the data with 5% FDR for multiple testing.
Gene functional annotation, enrichment, and pathway analyses to identify the leading biological pathways that operated under LAQ treatment were performed by Ingenuity Pathways Analysis software (www.ingenuity.com).
ANOVA analysis was used to compare PBMC gene expression after 1, 6 or 24 month of LAQ treatment with baseline gene expression.
For each time point inventors performed analysis source of variation in dataset. (FIG. 1). Age, gender and batch effects were considered as confounders regarding LAQ or Placebo related changes. For each time point genes associated with Placebo effect were evaluated and excluded from further analysis. […]

Structure (SMILES): CCN(C(=O)c1c(O)c2c(Cl)cccc2n(C)c1=O)c1ccccc1 [LAQ, 5-chloro-N-ethyl-4-hydroxy-1-methyl-2-oxo-N-phenyl-1,2-dihydroquinoline-3-carboxamide]
- Fold-Change (4.0 vs. 0.0) (gene FARP2, six months of treatment): −1.148
- Fold-Change (4.0 vs. 0.0) (gene FBLN1, after six months of LAQ): −1.125
- Fold-Change (4.0 vs. 0.0) (gene FBXO24, six months of treatment): −1.1555
- Fold-Change (4.0 vs. 0.0) (gene FERMT2, six months of treatment): −1.156
- Fold-Change (4.0 vs. 0.0) (gene FGA, PBMC, six months of LAQ treatment): −1.111
- Fold-Change (4.0 vs. 0.0) (gene FGF8, six months of treatment): −1.151
- Fold-Change (4.0 vs. 0.0) (gene FGF17): −1.187
- Fold-Change (4.0 vs. 0.0) (gene FGF18, after six months of LAQ): −1.226
- Fold-Change (4.0 vs. 0.0) (gene FGFR2): −1.186
- Fold-Change (4.0 vs. 0.0) (gene FGFR2, after six months of LAQ): −1.137
- Fold-Change (4.0 vs. 0.0) (gene FGL1, six months of treatment): −1.1602
- Fold-Change (4.0 vs. 0.0) (gene FHL5, after six months of LAQ): −1.132
- Fold-Change (4.0 vs. 0.0) (gene FICD, after six months of LAQ): −1.255
- Fold-Change (4.0 vs. 0.0) (gene FIGF, six months of treatment): −1.161
- Fold-Change (4.0 vs. 0.0) (gene FKSG2, after six months of LAQ): −1.27
- Fold-Change (4.0 vs. 0.0) (gene FLG, PBMC, six months of LAQ treatment): −1.104
- Fold-Change (4.0 vs. 0.0) (gene FLJ11292, after six months of LAQ): −1.232
- Fold-Change (4.0 vs. 0.0) (gene FLJ20184, after six months of LAQ): −1.232
- Fold-Change (4.0 vs. 0.0) (gene FLJ40330, after six months of LAQ): −1.134
- Fold-Change (4.0 vs. 0.0) (gene FLRT3): −1.187
- Fold-Change (4.0 vs. 0.0) (gene FMO1, six months of treatment): −1.146
- Fold-Change (4.0 vs. 0.0) (gene FMO6P, after six months of LAQ): −1.137
- Fold-Change (4.0 vs. 0.0) (gene FOLH1, PBMC, six months of LAQ treatment): −1.109
- Fold-Change (4.0 vs. 0.0) (gene FOXD2, after six months of LAQ): −1.143
- Fold-Change (4.0 vs. 0.0) (gene FOXL1, PBMC, six months of LAQ treatment): −1.112
- Fold-Change (4.0 vs. 0.0) (gene FOXP3): −1.193
- Fold-Change (4.0 vs. 0.0) (gene FRMD4B, six months of treatment): −1.1607
- Fold-Change (4.0 vs. 0.0) (gene FRZB): −1.1881
- Fold-Change (4.0 vs. 0.0) (gene FSTL1, after six months of LAQ): −1.66
- Fold-Change (4.0 vs. 0.0) (gene FUCA1, PBMC, six months of LAQ treatment): 1.673
- Fold-Change (4.0 vs. 0.0) (gene FURIN, after six months of LAQ): −1.235
- Fold-Change (4.0 vs. 0.0) (gene FUT2, after six months of LAQ): −1.225
- Fold-Change (4.0 vs. 0.0) (gene FUT3, after six months of LAQ): −1.345
- Fold-Change (4.0 vs. 0.0) (gene FUT6, after six months of LAQ): −1.126
- Fold-Change (4.0 vs. 0.0) (gene FZR1, after six months of LAQ): −1.269
- Fold-Change (4.0 vs. 0.0) (gene G6PC, after six months of LAQ): −1.131
- Fold-Change (4.0 vs. 0.0) (gene GAB1, after six months of LAQ): −1.138
- Fold-Change (4.0 vs. 0.0) (gene GABBR2, after six months of LAQ): −1.1332
- Fold-Change (4.0 vs. 0.0) (gene GABRR1, PBMC, six months of LAQ treatment): −1.09
- Fold-Change (4.0 vs. 0.0) (gene GART, after six months of LAQ): −1.129
- Fold-Change (4.0 vs. 0.0) (gene GC, after six months of LAQ): −1.128
- Fold-Change (4.0 vs. 0.0) (gene GCK, six months of treatment): −1.144
- Fold-Change (4.0 vs. 0.0) (gene GDPD2, six months of treatment): −1.15
- Fold-Change (4.0 vs. 0.0) (gene GEM, after six months of LAQ): −1.402
- Fold-Change (4.0 vs. 0.0) (gene GGA2, six months of treatment): −1.158
- Fold-Change (4.0 vs. 0.0) (gene GH2, after six months of LAQ): −1.135
- Fold-Change (4.0 vs. 0.0) (gene GJA3, six months of treatment): −1.144
- Fold-Change (4.0 vs. 0.0) (gene GJA5, six months of treatment): −1.144
- Fold-Change (4.0 vs. 0.0) (gene GJA9, after six months of LAQ): −1.143
- Fold-Change (4.0 vs. 0.0) (gene GJB1): −1.19
- Fold-Change (4.0 vs. 0.0) (gene GJB4): −1.192
- Fold-Change (4.0 vs. 0.0) (gene GJC2, six months of treatment): −1.151
- Fold-Change (4.0 vs. 0.0) (gene GK, after six months of LAQ): −1.267
- Fold-Change (4.0 vs. 0.0) (gene GLI2, after six months of LAQ): −1.143
- Fold-Change (4.0 vs. 0.0) (gene GLP1R): −1.1849
- Fold-Change (4.0 vs. 0.0) (gene GLP1R, after six months of LAQ): −1.269
- Fold-Change (4.0 vs. 0.0) (gene GLP1R, six months of treatment): −1.148
- Fold-Change (4.0 vs. 0.0) (gene GLRA2, six months of treatment): −1.15
- Fold-Change (4.0 vs. 0.0) (gene GLYR1): −1.186
- Fold-Change (4.0 vs. 0.0) (gene GNA12, after six months of LAQ): −1.2511
- Fold-Change (4.0 vs. 0.0) (gene GNAT1, after six months of LAQ): −1.235
- Fold-Change (4.0 vs. 0.0) (gene GNAT1, six months of treatment): −1.16
- Fold-Change (4.0 vs. 0.0) (gene GPR17, PBMC, six months of LAQ treatment): −1.112
- Fold-Change (4.0 vs. 0.0) (gene GPR20, after six months of LAQ): −1.23
- Fold-Change (4.0 vs. 0.0) (gene GPR32, six months of treatment): −1.156
- Fold-Change (4.0 vs. 0.0) (gene GPR52, after six months of LAQ): −1.234
- Fold-Change (4.0 vs. 0.0) (gene GPR63, six months of treatment): −1.154
- Fold-Change (4.0 vs. 0.0) (gene GPR64, after six months of LAQ): −1.13
- Fold-Change (4.0 vs. 0.0) (gene GPR88, PBMC, six months of LAQ treatment): −1.1216
- Fold-Change (4.0 vs. 0.0) (gene GPR98, PBMC, six months of LAQ treatment): −1.118
- Fold-Change (4.0 vs. 0.0) (gene GPR107, after six months of LAQ): −1.232
- Fold-Change (4.0 vs. 0.0) (gene GPR176): −1.177
- Fold-Change (4.0 vs. 0.0) (gene GRHL2, six months of treatment): −1.156
- Fold-Change (4.0 vs. 0.0) (gene GRM1, PBMC, six months of LAQ treatment): −1.111
- Fold-Change (4.0 vs. 0.0) (gene GSC2, after six months of LAQ): −1.142
- Fold-Change (4.0 vs. 0.0) (gene GSTA3, PBMC, six months of LAQ treatment): −1.116
- Fold-Change (4.0 vs. 0.0) (gene GUCA2A, six months of treatment): −1.155
- Fold-Change (4.0 vs. 0.0) (gene GYG2, after six months of LAQ): −1.142
- Fold-Change (4.0 vs. 0.0) (gene HAB1): −1.177
- Fold-Change (4.0 vs. 0.0) (gene HAMP, after six months of LAQ): −1.2333
- Fold-Change (4.0 vs. 0.0) (gene HAPLN1, after six months of LAQ): −1.137
- Fold-Change (4.0 vs. 0.0) (gene HAPLN2): −1.191
